{"source": "patent US20030139438A1", "about": "“Diagnosis of the parkinsonian condition” (priority 2001, published 2003)", "system": "effects of met-enkephalin", "test": "Naloxone diagnostic test in subject with pre-symptomatic Parkinson's disease (UPDRS Part III)", "assay_type": "in vivo, human", "settings": "single subcutaneous injection, 10-100 mg", "data": [{"smiles": "C=CCN1CC[C@]23c4c5ccc(O)c4O[C@H]2C(=O)CC[C@@]3(O)[C@H]1C5", "note": "[naloxone]", "values": [{"measurement": "time until symptoms subside after injection", "result": "≤ 20", "unit": "min"}]}]}
